From PMC4199692 come the findings set out here.

No constants are given. Whether binding was seen depends on the method and setting. Some entries that bind do so weakly or less than the wild type.

This assay addresses T1, Polo (UniProt P52304).
T1 sequence: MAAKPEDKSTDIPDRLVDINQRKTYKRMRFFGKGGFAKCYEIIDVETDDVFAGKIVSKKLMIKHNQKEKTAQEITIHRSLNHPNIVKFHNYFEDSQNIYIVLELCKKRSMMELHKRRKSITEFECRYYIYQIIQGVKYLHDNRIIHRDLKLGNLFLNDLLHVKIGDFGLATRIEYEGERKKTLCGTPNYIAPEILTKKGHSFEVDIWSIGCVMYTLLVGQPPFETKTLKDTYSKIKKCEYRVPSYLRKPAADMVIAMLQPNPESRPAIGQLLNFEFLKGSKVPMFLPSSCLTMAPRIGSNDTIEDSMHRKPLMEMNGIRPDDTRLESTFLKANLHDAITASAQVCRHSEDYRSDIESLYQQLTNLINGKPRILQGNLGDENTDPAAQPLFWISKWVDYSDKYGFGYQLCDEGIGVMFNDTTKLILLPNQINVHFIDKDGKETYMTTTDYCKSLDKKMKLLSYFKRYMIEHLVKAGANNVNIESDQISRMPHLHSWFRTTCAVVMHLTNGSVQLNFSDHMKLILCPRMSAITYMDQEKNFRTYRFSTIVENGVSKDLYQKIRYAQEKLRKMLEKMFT
Put plainly: in vitro binding study; in vitro binding studies with Polo; methods in File S1 (not shown).

B1: MEI-S332 T331-D (phosphomimetic version of the Polo box-binding domain) (protein, UniProt Q24141 1-401)
chain: MGSKVEQQYKLLNAELMDQVQKQRLEIGEYRKRVISLEREIMDIREEHVLQNHRQRMENISIVRSLMLSLNVDSDSLAVRQEPAPAAQINRPSGPRRSSREICKDMRRTCALARTTRPISPRRSSSVTSTVSSTSRRSSAEVQSEVVTTRIPEDRRANKPTPPPRRPAELVFDEDDSDDDFDEAVSPVEETQTEQNEENNRLFSIIEENGSEGESTDSSSSCEAIYCDTTFESSPPNAQVTVTPSGRALREVDTNIPVAVSLSRGKETGKGSWLAISVAVEDSPQEPSIQCPRLAVTRPSQSSGIFPDVNGLTPRRSLFNGIGKMAGSTSDPKSFLVEEMPSIRTRSRTAANKKSENTDMSSSFCNNSARPSRSCRPTSLVEPSLKNKLRNGSKGKAKAKK
B1: the binding entry is “binds”.
